No constants are given. Whether binding was seen depends on the method and setting. Binding seen in cells or lysates may run through a third protein. For some assays here: Tags and fused reporters may be left off the sequences shown.
Experiments:
[1] = target: T1, histone deacetylase 6 (HDAC6), endogenous in mouse brain (mouse (endogenous in brain tissue)) (UniProt Q9Z2V5); assay: co-IP; mouse brain tissue lysates of Gars^+/+ and Gars^P234KY/+ littermates (postnatal day 7); antibody on protein G-sepharose, 3 h or overnight at 4 °C, washed four times with cold PBS pH 7.4; western blot
T1 sequence: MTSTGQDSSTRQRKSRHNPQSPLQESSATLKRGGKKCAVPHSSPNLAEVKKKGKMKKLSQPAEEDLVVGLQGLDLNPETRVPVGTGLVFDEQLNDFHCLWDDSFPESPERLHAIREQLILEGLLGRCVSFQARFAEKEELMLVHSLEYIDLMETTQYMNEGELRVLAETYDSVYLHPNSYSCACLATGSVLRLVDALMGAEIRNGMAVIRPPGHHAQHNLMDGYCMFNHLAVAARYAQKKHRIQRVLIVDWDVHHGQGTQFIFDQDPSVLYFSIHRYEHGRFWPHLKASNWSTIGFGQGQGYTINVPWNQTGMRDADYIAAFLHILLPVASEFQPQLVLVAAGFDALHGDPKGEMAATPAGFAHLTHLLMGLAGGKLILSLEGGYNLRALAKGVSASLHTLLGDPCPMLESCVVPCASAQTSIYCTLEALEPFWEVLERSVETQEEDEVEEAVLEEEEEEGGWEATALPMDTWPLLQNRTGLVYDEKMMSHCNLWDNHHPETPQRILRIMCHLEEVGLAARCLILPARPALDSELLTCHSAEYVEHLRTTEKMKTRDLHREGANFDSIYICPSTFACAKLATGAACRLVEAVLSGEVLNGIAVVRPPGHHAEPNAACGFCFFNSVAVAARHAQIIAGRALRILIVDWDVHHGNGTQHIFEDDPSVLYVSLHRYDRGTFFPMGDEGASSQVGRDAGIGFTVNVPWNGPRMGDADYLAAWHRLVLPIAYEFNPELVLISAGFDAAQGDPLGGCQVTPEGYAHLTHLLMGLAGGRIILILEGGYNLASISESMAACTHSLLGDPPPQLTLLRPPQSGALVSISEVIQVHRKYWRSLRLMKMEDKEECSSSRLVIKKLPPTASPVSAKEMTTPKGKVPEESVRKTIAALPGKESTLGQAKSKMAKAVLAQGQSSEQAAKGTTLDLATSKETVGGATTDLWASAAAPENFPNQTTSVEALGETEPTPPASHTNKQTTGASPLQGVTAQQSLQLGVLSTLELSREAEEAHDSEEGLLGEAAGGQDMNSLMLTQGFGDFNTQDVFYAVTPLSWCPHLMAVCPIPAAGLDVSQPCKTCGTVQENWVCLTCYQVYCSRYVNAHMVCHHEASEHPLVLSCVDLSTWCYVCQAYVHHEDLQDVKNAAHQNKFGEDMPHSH

The chains behind the UniProt entries cited, without tags or fusion partners.
UniProt Q9UBN7: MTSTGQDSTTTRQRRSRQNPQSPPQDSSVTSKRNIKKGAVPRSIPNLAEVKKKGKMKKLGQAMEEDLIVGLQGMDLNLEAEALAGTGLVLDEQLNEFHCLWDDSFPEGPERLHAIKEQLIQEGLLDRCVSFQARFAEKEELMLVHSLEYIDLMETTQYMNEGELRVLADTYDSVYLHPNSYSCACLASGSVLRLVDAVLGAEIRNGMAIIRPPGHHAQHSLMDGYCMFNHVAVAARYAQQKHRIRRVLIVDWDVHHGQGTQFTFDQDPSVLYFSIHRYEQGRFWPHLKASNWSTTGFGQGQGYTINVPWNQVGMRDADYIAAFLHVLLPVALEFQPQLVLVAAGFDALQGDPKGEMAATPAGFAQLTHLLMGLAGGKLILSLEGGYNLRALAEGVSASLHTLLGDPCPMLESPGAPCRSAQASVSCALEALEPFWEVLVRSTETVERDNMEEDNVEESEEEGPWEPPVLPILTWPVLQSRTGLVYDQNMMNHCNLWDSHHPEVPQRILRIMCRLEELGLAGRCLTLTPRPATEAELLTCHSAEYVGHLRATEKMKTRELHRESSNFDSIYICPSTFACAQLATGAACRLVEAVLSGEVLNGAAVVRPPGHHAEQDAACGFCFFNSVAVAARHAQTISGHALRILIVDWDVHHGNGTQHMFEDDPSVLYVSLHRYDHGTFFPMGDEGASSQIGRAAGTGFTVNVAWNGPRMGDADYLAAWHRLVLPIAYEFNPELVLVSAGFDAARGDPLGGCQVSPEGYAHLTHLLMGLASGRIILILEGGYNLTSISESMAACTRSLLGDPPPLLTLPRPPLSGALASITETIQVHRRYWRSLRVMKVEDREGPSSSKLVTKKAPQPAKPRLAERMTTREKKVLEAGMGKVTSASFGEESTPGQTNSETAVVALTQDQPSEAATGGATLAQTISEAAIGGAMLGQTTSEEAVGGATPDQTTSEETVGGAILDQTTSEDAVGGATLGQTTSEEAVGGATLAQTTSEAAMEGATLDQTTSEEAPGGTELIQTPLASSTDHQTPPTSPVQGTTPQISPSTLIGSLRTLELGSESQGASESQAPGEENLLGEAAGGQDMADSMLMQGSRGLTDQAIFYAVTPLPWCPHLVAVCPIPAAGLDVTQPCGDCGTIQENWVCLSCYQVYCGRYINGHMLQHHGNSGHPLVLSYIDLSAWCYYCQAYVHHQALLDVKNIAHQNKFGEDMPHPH

[2] = target: histone deacetylase 6 (HDAC6), endogenous in human PBMCs (human (endogenous in PBMCs)) (UniProt Q9UBN7); assay: co-IP; PBMC lysates of a CMT patient (GlyRS S581L) and a healthy donor, equal total protein; anti-HDAC6 on protein G-sepharose, overnight at 4 °C, washed four times with cold PBS pH 7.4; western blot

B1: glycyl-tRNA synthetase (GlyRS), wild type, of Gars^+/+ mice (protein, UniProt Q9CZD3 34-729)
chain: LSAPAQPAASRSSMDSAEELLAPLRLAVRQQGDFVRKLKEDKAPQVDVDRAVAELKARKRVLEAKELALQPKDDIVDRAKMEDTLKRRFFYDQAFAIYGGVSGLYDFGPVGCALKNNIIQAWRQHFIQEEQILEIDCTMLTPEPVLKTSGHVDKFADFMVKDVKNGECFRADHLLKAHLQKLMSDKKCSAEKKSEMESVLAQLDNYGQQELADLFVNYNVKSPTTGNDLSPPVPFNLMFQTFIGPGGNMPGYLRPETAQGIFLNFKRLLEFNQGKLPFAAAQIGNSFRNEISPRSGLIRVREFTMAEIEHFVDPTEKDHPKFQSVADLCLYLYSAKAQVTGQSARKMRLGDAVEQGVINNSVLGYFIGRIYLYLTKVGISPDKLRFRQHMENEMAHYACDCWDAESKTSYGWIEIVGCADRSCYDLSCHARATKVPLVAEKPLKEPKTVNVVQFEPNKGAVGKAYKKDAKLVLEYLSACDECYISEMELLLSEKGEFTIETEGKTFQLTKDMVSVKRFQKTLHVEEVVPSVIEPSFGLGRIMYTILEHTFHVREGDEQRTFFSFPAVVAPFKCSVLPLSQNQEFMPFVKELSEALTRNGVSHKVDDSSGSIGRRYARTDEIGVAFGITIDFDTVNKTPHTATLRDRDSMRQIRAEVSELPNVVRDLANGNITWADVEARYPLFEGQETGKKETVEE
**Q.** Which binding [1] does the source give for B1 here?
**A.** Its binding is “no binding”.

B2: GlyRS, endogenous in PBMCs of a healthy donor (protein, UniProt P41250 37-739)
chain: SAASCPPISLPAAASRSSMDGAGAEEVLAPLRLAVRQQGDLVRKLKEDKAPQVDVDKAVAELKARKRVLEAKELALQPKDDIVDRAKMEDTLKRRFFYDQAFAIYGGVSGLYDFGPVGCALKNNIIQTWRQHFIQEEQILEIDCTMLTPEPVLKTSGHVDKFADFMVKDVKNGECFRADHLLKAHLQKLMSDKKCSVEKKSEMESVLAQLDNYGQQELADLFVNYNVKSPITGNDLSPPVSFNLMFKTFIGPGGNMPGYLRPETAQGIFLNFKRLLEFNQGKLPFAAAQIGNSFRNEISPRSGLIRVREFTMAEIEHFVDPSEKDHPKFQNVADLHLYLYSAKAQVSGQSARKMRLGDAVEQGVINNTVLGYFIGRIYLYLTKVGISPDKLRFRQHMENEMAHYACDCWDAESKTSYGWIEIVGCADRSCYDLSCHARATKVPLVAEKPLKEPKTVNVVQFEPSKGAIGKAYKKDAKLVMEYLAICDECYITEMEMLLNEKGEFTIETEGKTFQLTKDMINVKRFQKTLYVEEVVPNVIEPSFGLGRIMYTVFEHTFHVREGDEQRTFFSFPAVVAPFKCSVLPLSQNQEFMPFVKELSEALTRHGVSHKVDDSSGSIGRRYARTDEIGVAFGVTIDFDTVNKTPHTATLRDRDSMRQIRAEISELPSIVQDLANGNITWADVEARYPLFEGQETGKKETIEE
**Q.** How did the binding [2] turn out when B2 was run?
**A.** The binding was “no binding”.

From article PMC5843656
